Drawing on article PMC4000008, this text covers binding for 6 substances.

These are yes or no findings as the source states them, for the method shown. Binding calls can cover weak binding; strength is not graded here.

Common to all, as to experiment: two-hybrid; MatchMaker GAL4 system, BnaCPK in pGBKT7 (BD), BnaPP2C in pGADT7 (AD), yeast strain AH109; scored by growth on SD-LWHA at 30°C, dilution series and X-gal staining (Figure 4)
In test [1] the target is BnaCPK7 (Brassica napus) (UniProt X2C4A1).
The target of test [2] is BnaCPK28 (Brassica napus) (UniProt X2C213).
Test [3] addresses BnaCPK30 (Brassica napus).
The target of test [4] is BnaCPK32 (Brassica napus) (UniProt X2D314).

Take BnaHAB2 (from UniProt X2C3X2) (enzyme): the binding result in test [1] and in test [2] was “binds” throughout.
With BnaHAI2 (from UniProt X2GCR9) (enzyme), the binding entry in test [1] and in test [3] was “binds” throughout.
On to BnaAHG1 (from UniProt X2GFY9) (enzyme), for which the binding entry in test [1] was “binds”.
Consider BnaAHG3 (from UniProt X2C3V5) (enzyme), for which, in test [3], the binding result is “binds”.
For the substance BnaHAI3 (from UniProt X2G6A7) (enzyme), the binding entry in test [3] is given as “binds”.
Consider “BnaHAB1 (from UniProt A0A816ZBR0) (enzyme)”, for which the binding result in test [1] and in test [4] was “binds” in each case.
